No constants are given. Whether binding was seen depends on the method and setting. Some results given as binding are weak or reduced against the parent protein; the word gives no strength. Blank lines part the entries; values can stand above or below the binder they belong to.
Assays:
[1] = target: DHR76; assay: analytical gel filtration with multi-angle light scattering, homodimer
[2] = target: DHR76; assay: SAXS, fitted with the dimer seen in the crystal structure
[3] = target: DHR76; assay: SEC-MALS, self-association (homodimer)
[4] = target: DHR76; assay: crystal structure and SAXS fitting, homodimer
[5] = target: DHR49; assay: analytical gel filtration with multi-angle light scattering, homodimer
[6] = target: DHR49; assay: SAXS, fitted with the dimer seen in the crystal structure
[7] = target: DHR49; assay: SEC-MALS, self-association (homodimer)
[8] = target: DHR49; assay: crystal structure and SAXS fitting, homodimer

binding [1]: binds | binding [2]: binds | binding [3]: binds | binding [4]: binds
B1: DHR76 (protein)
chain: MNPELEEWIRRAKEVAKEVEKVAQRAEEEGNPDLRDSAKELRRAVEEAIEEAKKQGNPELVEWVARAAKVAAEVIKVAIQAEKEGNRDLFRAALELVRAVIEAIEEAVKQGNPELVEWVARAAKVAAEVIKVAIQAEKEGNRDLFRAALELVRAVIEAIEEAVKQGNPELVERVARLAKKAAELIKRAIRAEKEGNRDERREALERVREVIERIEELVRQGGWLEHHHHHH

binding [5]: binds | binding [6]: binds | binding [7]: binds | binding [8]: binds
B2: DHR49 (protein)
chain: MDSEEEQERIRRILKEARKSGTEESLRQAIEDVAQLAKKSQDSEVLEEAIRVILRIAKESGSEEALRQAIRAVAEIAKEAQDSEVLEEAIRVILRIAKESGSEEALRQAIRAVAEIAKEAQDPRVLEEAIRVIRQIAEESGSEEARRQAERAEEEIRRRAQGWLEHHHHHH

— patent US20190012428A1
